Values quoted from earlier work, collected in paper PMC12181400, “Leveraging viral genome sequences and machine learning models for identification of potentially selective antiviral agents” (Communications Chemistry, 2025).

Assays:
[1] = tested on: cell viability (tox21-ar-mda-kb2-luc-antagonist-p2); conditions: cited from earlier work
[2] = tested on: cell viability (tox21-ar-mda-kb2-luc-agonist-p3); conditions: cited from earlier work

## CCN(Cc1ccncc1)C(=O)C(CO)c1ccccc1 (centres unmarked) [Tropicamide]
[1]
  tox21-ar-mda-kb2-luc-antagonist-p2-viability (curve rank): 0
[2]
  tox21-ar-mda-kb2-luc-agonist-p3-viability (curve rank): 0
